Experimental data published in publication PMC10163288.
The list shows a part of the results.

B1: il2ra_site2_2erj_normal_mot_HHH_b2_02500_af2_000000175_0001_19_35_H_._HHH_b1_00111_0001_0000100002_0000001_0 (protein)
chain: SSSSAEEAAEFVERDVERLLEEGDPQAAESALRLLERYAEASRSEYLREVVKELERLIEELSSSS
B2: il2ra_site2_2erj_sap_30_mot_HHH_b1_00612_000000025_0001_42_56_H_._HHH_b2_05479_af2_0001_0000200009_0000001_0_0001 (protein)
chain: SSSSSESLEAAREFAQEAYENGDRSALELFLEFAERSLEATGDPRIEELLEYIRELLEELSSSSS
B3: il2ra_site1_2b5i_normal_mot_22370d59370c406a0c205a431f537cfa_0001_af2_000000141_0001_1_31_H_._HHH_b1_01338_af2_0001_0000100004_0000001_0_af2pred_0001_af2pred (protein)
chain: SSSSDDELLRFAVRVIFKLRAEFGLSAEQAKELDKIAAELVEEGVSEEEIEEILREVAEELSSSS
B4: il2ra_site1_1z92_sap_9_mot_HHH_b2_04375_000000267_0001_42_56_H_._HHH_b2_04201_af2_0001_0000600051_0000001_0_0001_af2pred_0001_af2pred_swapped (protein)
chain: NLSTREEIEEAIKKNDDELLKRILELAERAAGDPKLAKQFLKILIAKLLGDPEEAEKIVERIERR
B5: il2ra_site1_3nfp_sap_18_mot_HHH_b1_02896_af2_000000287_0001_1_17_H_._HHH_b1_08185_0001_0000800023_0000001_0_0001 (protein)
chain: SSSSTEELEELLELVEEAYRALQEGDEELVEELLEEAKELAKKLGDKIALRLLEDIEENTSSSSS
B6: il2ra_site2_3nfp_normal_mot_HHH_b2_04451_000000238_0001_21_37_H_._HHH_b1_01319_af2_0001_0000700039_0000001_0 (protein)
chain: SSSSDLEELAEELLELVEKARTEEEKNELLRLLAELTEEVAKAGDEEAARLILEAFQLLQNSSSS
B7: il2ra_site2_3nfp_sap_21_mot_HHH_b1_07114_000000063_0001_43_53_H_._5b280ff452c1d219987978312b678990_0001_0001_0000500039_0000001_0_0001 (protein)
chain: SSSSSKAEEYLEAVVKVIEEALEAGDRESARSSLEAAEQVAELHGDEELLERLEELKELVNSSSS
B8: il2ra_site1_3nfp_normal_mot_HHH_b1_04049_af2_000000244_0001_42_55_H_._d1fb33ed66649044859e967e86ea168f_0001_af2_0001_0000400011_0000001_0_af2pred_0001_af2pred_1 (protein)
chain: SRERAIRTIIRSLKRHPDPEVRRLAEEAEELLENGDPEEALKVLKEAAELAGDPVLKELIQRLLE
B9: il2ra_site1_3nfp_sap_8_mot_HHH_b1_07440_af2_000000231_0001_1_19_H_._HHH_b1_05395_af2_0001_0000300015_0000001_0_0001 (protein)
chain: SSSSSEVRKRAQRLIKEAMEANAHGNPEEAEELLREAEELAKEANDEWALKMIRELLERVTSSSS
B10: il2ra_site1_3nfp_normal_mot_HHH_b1_02721_af2_000000134_0001_39_56_H_._HHH_b1_06677_0001_0000400043_0000001_0 (protein)
chain: SSSSSREAQEALREITEALKEGDYELAEKLIEEAEELAEELNSELLKRLLEQLKEYLERLKSSSS
B11: il2ra_site2_3nfp_normal_mot_HHH_b1_07318_af2_000000161_0001_22_38_H_._HHH_b2_01617_0001_0000400032_0000001_1 (protein)
chain: SSSSDAELAAEDLLALLERLGDEESFRELEELLEKLKETGDPEDQLELYELIREIFEELQSSSSS
B12: il2ra_site1_1z92_normal_mot_HHH_b2_06308_af2_000000104_0001_1_20_H_._ea6b996f6416bdbfe5a1271cf9e5b7ac_0001_1_0001_0000200033_0000001_0_af2pred_0001_af2pred_1 (protein)
chain: PEEFLREQLEKKLKRDPEAAKKLLEKLLRAEGVPPEEIEKILRQVEELAKRDPEKAAELAIELLR
B13: il2ra_site2_2erj_normal_mot_b5c6f2848cbf55e1ecbd417c35b42da7_0001_af2_000000155_0001_1_14_H_._HHH_b1_03316_af2_0001_0000300008_0000001_0 (protein)
chain: SSSSDSLEELQELIEKAFENNDRSRLKLLIRYLELSLKQTGDPRVEELLREAEELLERLNSSSSS
B14: il2ra_site2_2erj_normal_mot_HHH_b1_03609_af2_000000077_0001_42_55_H_._HHH_b2_01692_0001_0000500006_0000001_0 (protein)
chain: SSSSSEVEEEVREILEEAKHIEDPEEREKVLSKAAELAFENNDFEAWSLVSEVFRELAESSSSSS
B15: il2ra_site2_3nfp_normal_mot_7cf5847eaa050a71bc877a27954f5424_0001_1_af2_000000114_0001_17_30_H_._c458a205a670bde904f9ae2de9a5ce79_0001_1_0001_0000100001_0000001 … (protein)
chain: SFRILLEEAVEEGNLEEVLKKFVERAEELSGNPEDARSLAKAAIERVLPDPRLQEEAKKIVEEVG
B16: il2ra_site2_3nfp_sap_24_mot_HHH_b2_04623_000000077_0001_1_15_H_._c2dd1dc352432ff47dded349a4d391fc_0001_1_0001_0000500054_0000001_0_0001 (protein)
chain: SSSSSSDHEFYERVVKLLKKANRIEDEEELQKVLEEARELAEELGSEVLRRSVEDTAKALSSSSS
B17: il2ra_site1_2b5i_normal_mot_HHH_b2_04353_af2_000000128_0001_1_17_H_._HHH_b1_04049_0001_0000200012_0000001_0_af2pred_dldesign_0_af2pred (protein)
chain: SSSSSDPEEEVYDLFKEALRLRKAGKREEARKVLEKALEKAKELGNEKLVSELERLLKLLSSSSS
B18: il2ra_site1_1z92_normal_mot_57fbbab2d607e533440bfb1b251026a3_0001_af2_000000189_0001_1_16_H_._HHH_b1_08204_0001_0000300017_0000001_1_1_af2pred_0001_af2pred_1 (protein)
chain: SSSSSDEELLEEAERLVEEVEEKRDARLRFEVAEFINEAAKKVDDPEIFERLAELFELLSSSSSS
B19: il2ra_site2_3nfp_sap_20_mot_HHH_b1_05796_000000051_0001_39_56_H_._52ba57536a5f4d361b988889b6b0b76f_0001_0001_0000100005_0000001_0_0001 (protein)
chain: SSSSDEEEKELEKLLEELKKAVEDGDEELVRRIRARVTQLAWELGDAEVFFEVAELAIALNSSSS

These binders were tested against il2ra, P01589 (assay: yeast display titration).

Apparent Kd, inactive:
B1 no binding seen
B2 no binding seen
B3 no binding seen
B4 no binding seen
B5 no binding seen
B6 no binding seen
B7 no binding seen
B8 no binding seen
B9 no binding seen
B10 no binding seen
B11 no binding seen
B12 no binding seen
B13 no binding seen
B14 no binding seen
B15 no binding seen
B16 no binding seen
B17 no binding seen
B18 no binding seen
B19 no binding seen
